# Assay results from the supplement of paper PMC8728848.
# This is one part of the list.
# How the values were obtained:
# Experiment in all cases: glycan array binding signal (z-score within array); higher = stronger binding
# Details in all cases: glycan notation: IUPAC condensed, linker removed
# Gal(b1-4)Glc = target: Gal(b1-4)Glc
# Outline: (§1)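 Glycan array data came from 3228 arrays in the Consortium for Functional Glycomics database, and only arrays with an available protein sequence were kept. Glycan names were put into IUPAC-condensed notation, and columns mapping to the same glycan were averaged. The binding signal is a within-array Z-score, averaged across arrays of one protein sequence run at different concentrations or buffers and across linkers. A negative Z-score can be read as non-binding.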
# Gal(b1-4)Glc6S = target: Gal(b1-4)Glc6S
# Outline: as §1
# Gal(b1-4)GlcNAc = target: Gal(b1-4)GlcNAc
# Outline: as §1
# [1] = target: Gal(b1-4)GlcNAc(a1-6)Gal(b1-4)GlcNAc
# Outline: as §1
# Gal(b1-4)GlcNAc(b1-2)Man = target: Gal(b1-4)GlcNAc(b1-2)Man
# Outline: as §1
# [2] = target: Gal(b1-4)GlcNAc(b1-2)Man(a1-3)Man(b1-4)GlcNAc(b1-4)GlcNAc
# Outline: as §1
# [3] = target: Gal(b1-4)GlcNAc(b1-2)Man(a1-3)[Gal(b1-4)GlcNAc(b1-2)Man(a1-6)]Man(b1-4)GlcNAc(b1-4)GlcNAc
# Outline: as §1
# [4] = target: Gal(b1-4)GlcNAc(b1-2)Man(a1-3)[Gal(b1-4)GlcNAc(b1-2)Man(a1-6)]Man(b1-4)GlcNAc(b1-4)[Fuc(a1-6)]GlcNAc
# Outline: as §1
# [5] = target: Gal(b1-4)GlcNAc(b1-2)Man(a1-3)[Gal(b1-4)GlcNAc(b1-2)Man(a1-6)][Gal(b1-4)GlcNAc(b1-4)]Man(b1-4)GlcNAc(b1-4)[Fuc(a1-6)]GlcNAc
# Outline: as §1
# [6] = target: Gal(b1-4)GlcNAc(b1-2)Man(a1-3)[Gal(b1-4)GlcNAc(b1-2)Man(a1-6)][GlcNAc(b1-4)]Man(b1-4)GlcNAc(b1-4)[Fuc(a1-6)]GlcNAc
# Outline: as §1
# [7] = target: Gal(b1-4)GlcNAc(b1-2)Man(a1-3)[GlcNAc(b1-2)Man(a1-6)]Man(b1-4)GlcNAc(b1-4)GlcNAc
# Outline: as §1
# [8] = target: Gal(b1-4)GlcNAc(b1-2)Man(a1-3)[GlcNAc(b1-4)][Gal(b1-4)GlcNAc(b1-2)Man(a1-6)]Man(b1-4)GlcNAc(b1-4)GlcNAc
# Outline: as §1
# [9] = target: Gal(b1-4)GlcNAc(b1-2)Man(a1-3)[Man(a1-6)]Man(b1-4)GlcNAc(b1-4)GlcNAc
# Outline: as §1
# [10] = target: Gal(b1-4)GlcNAc(b1-2)Man(a1-6)Man(b1-4)GlcNAc(b1-4)GlcNAc
# Outline: as §1
# [11] = target: Gal(b1-4)GlcNAc(b1-2)Man(a1-6)[GlcNAc(b1-2)Man(a1-3)]Man(b1-4)GlcNAc(b1-4)GlcNAc
# Outline: as §1
# [12] = target: Gal(b1-4)GlcNAc(b1-2)Man(a1-6)[Man(a1-3)]Man(b1-4)GlcNAc(b1-4)GlcNAc
# Outline: as §1
# [13] = target: Gal(b1-4)GlcNAc(b1-2)[Gal(b1-4)GlcNAc(b1-4)]Man(a1-3)[Gal(b1-4)GlcNAc(b1-2)Man(a1-6)]Man(b1-4)GlcNAc(b1-4)GlcNAc
# Outline: as §1
# [14] = target: Gal(b1-4)GlcNAc(b1-2)[Gal(b1-4)GlcNAc(b1-4)]Man(a1-3)[Gal(b1-4)GlcNAc(b1-2)[Gal(b1-4)GlcNAc(b1-6)]Man(a1-6)]Man(b1-4)GlcNAc(b1-4)GlcNAc
# Outline: as §1
# [15] = target: Gal(b1-4)GlcNAc(b1-2)[Gal(b1-4)GlcNAc(b1-4)]Man(a1-3)[GlcNAc(b1-4)][Gal(b1-4)GlcNAc(b1-2)Man(a1-6)]Man(b1-4)GlcNAc(b1-4)GlcNAc
# Outline: as §1
# [16] = target: Gal(b1-4)GlcNAc(b1-2)[Gal(b1-4)GlcNAc(b1-4)]Man(a1-3)[GlcNAc(b1-4)][Gal(b1-4)GlcNAc(b1-2)[Gal(b1-4)GlcNAc(b1-6)]Man(a1-6)]Man(b1-4)GlcNAc(b1-4)GlcNAc
# Outline: as §1
# [17] = target: Gal(b1-4)GlcNAc(b1-2)[Gal(b1-4)GlcNAc(b1-6)]Man(a1-6)[Gal(b1-4)GlcNAc(b1-2)Man(a1-3)]Man(b1-4)GlcNAc(b1-4)GlcNAc
# Outline: as §1
# [18] = target: Gal(b1-4)GlcNAc(b1-2)[Gal(b1-4)GlcNAc(b1-6)]Man(a1-6)[Gal(b1-4)GlcNAc(b1-2)Man(a1-3)]Man(b1-4)GlcNAc(b1-4)[Fuc(a1-6)]GlcNAc
# Outline: as §1
# [19] = target: Gal(b1-4)GlcNAc(b1-2)[Gal(b1-4)GlcNAc(b1-6)]Man(a1-6)[GlcNAc(b1-4)][Gal(b1-4)GlcNAc(b1-2)Man(a1-3)]Man(b1-4)GlcNAc(b1-4)GlcNAc
# Outline: as §1
# [20] = target: Gal(b1-4)GlcNAc(b1-2)[Gal(b1-4)GlcNAc(b1-6)]Man(a1-6)[GlcNAc(b1-4)][Gal(b1-4)GlcNAc(b1-2)[Gal(b1-4)GlcNAc(b1-4)]Man(a1-3)]Man(b1-4)GlcNAc(b1-4)[Fuc(a1-6)]GlcNAc
# Outline: as §1
# [21] = target: Gal(b1-4)GlcNAc(b1-3)Gal(b1-3)GalNAc
# Outline: as §1
# [22] = target: Gal(b1-4)GlcNAc(b1-3)Gal(b1-3)GlcNAc
# Outline: as §1
# [23] = target: Gal(b1-4)GlcNAc(b1-3)Gal(b1-4)Glc
# Outline: as §1
# [24] = target: Gal(b1-4)GlcNAc(b1-3)Gal(b1-4)GlcNAc
# Outline: as §1
# [25] = target: Gal(b1-4)GlcNAc(b1-3)Gal(b1-4)GlcNAc(b1-2)Man(a1-3)[Gal(b1-4)GlcNAc(b1-3)Gal(b1-4)GlcNAc(b1-2)Man(a1-6)]Man(b1-4)GlcNAc(b1-4)GlcNAc
# Outline: as §1
# [26] = target: Gal(b1-4)GlcNAc(b1-3)Gal(b1-4)GlcNAc(b1-2)Man(a1-3)[Gal(b1-4)GlcNAc(b1-3)Gal(b1-4)GlcNAc(b1-2)Man(a1-6)]Man(b1-4)GlcNAc(b1-4)[Fuc(a1-6)]GlcNAc
# Outline: as §1
# [27] = target: Gal(b1-4)GlcNAc(b1-3)Gal(b1-4)GlcNAc(b1-2)[Gal(b1-4)GlcNAc(b1-3)Gal(b1-4)GlcNAc(b1-6)]Man(a1-6)[Gal(b1-4)GlcNAc(b1-3)Gal(b1-4)GlcNAc(b1-2)Man(a1-3)]Man(b1-4)GlcNAc(b1-4)GlcNAc
# Outline: as §1
# [28] = target: Gal(b1-4)GlcNAc(b1-3)Gal(b1-4)GlcNAc(b1-2)[Gal(b1-4)GlcNAc(b1-3)Gal(b1-4)GlcNAc(b1-6)]Man(a1-6)[Gal(b1-4)GlcNAc(b1-3)Gal(b1-4)GlcNAc(b1-2)Man(a1-3)]Man(b1-4)GlcNAc(b1-4)[Fuc(a1-6)]GlcNAc
# Outline: as §1
# [29] = target: Gal(b1-4)GlcNAc(b1-3)Gal(b1-4)GlcNAc(b1-3)Gal(b1-4)GlcNAc
# Outline: as §1
# [30] = target: Gal(b1-4)GlcNAc(b1-3)Gal(b1-4)GlcNAc(b1-3)Gal(b1-4)GlcNAc(b1-2)Man(a1-3)[Gal(b1-4)GlcNAc(b1-3)Gal(b1-4)GlcNAc(b1-3)Gal(b1-4)GlcNAc(b1-2)Man(a1-6)]Man(b1-4)GlcNAc(b1-4)GlcNAc
# Outline: as §1
# [31] = target: Gal(b1-4)GlcNAc(b1-3)Gal(b1-4)GlcNAc(b1-3)Gal(b1-4)GlcNAc(b1-2)Man(a1-3)[Gal(b1-4)GlcNAc(b1-3)Gal(b1-4)GlcNAc(b1-3)Gal(b1-4)GlcNAc(b1-2)Man(a1-6)]Man(b1-4)GlcNAc(b1-4)[Fuc(a1-6)]GlcNAc
# Outline: as §1
# [32] = target: Gal(b1-4)GlcNAc(b1-3)Gal(b1-4)GlcNAc(b1-3)Gal(b1-4)GlcNAc(b1-2)[Gal(b1-4)GlcNAc(b1-3)Gal(b1-4)GlcNAc(b1-3)Gal(b1-4)GlcNAc(b1-6)]Man(a1-6)[Gal(b1-4)GlcNAc(b1-3)Gal(b1-4)GlcNAc(b1-3)Gal(b1-4)GlcNAc(b1-2)Man(a1-3)]Man(b1-4)GlcNAc(b1-4)[Fuc(a1-6)]GlcNAc
# Outline: as §1
# [33] = target: Gal(b1-4)GlcNAc(b1-3)Gal(b1-4)GlcNAc(b1-3)Gal(b1-4)GlcNAc(b1-3)Gal(b1-4)GlcNAc(b1-2)Man(a1-3)[Gal(b1-4)GlcNAc(b1-3)Gal(b1-4)GlcNAc(b1-3)Gal(b1-4)GlcNAc(b1-3)Gal(b1-4)GlcNAc(b1-2)Man(a1-6)]Man(b1-4)GlcNAc(b1-4)GlcNAc
# Outline: as §1
binder,measurement,setting,value
PX14375D-bvu-513-34-513 (Bacteroides vulgatus) (protein) TEDTFWKDETDFNLALTSCYTPLKNALNGGYYGTRGVMLRIARADEVDFRNDISDVYTVNRFTNSNTNSLTQGMFYQFYNALYRTNSIMQKLEEKKEQFSTDFQNSVKGECLFIRGFYLFQLAKEFKDAPLRLTASQSPSTFPLAKSSQADIWAQAKEDLKTAASLLPITNKIGKPTQGAAYAALGKIYVYEENWQEAINVLEPLTQNPYTYKLVEDFNWNFDDTHENNAESIFELLIEDVGGTDLWGDGENINSTQSNTRPKEYAAAEVGGWYEANPTQQIMDIFWKEKDKDGNFDYRARCSVAWDYEGCTYYQRPFREVFAQDKWKTYWILKYQNWKTQKDEPAPPKSFINERAIRYADVLLMLAEAYMNKGALDTSIGYINQIRRRANLNDYSGPITKEGVFEDLVHQRAIEFFVEGERFYDLRRWGLLEQTLKTCDDTRYKNYQTGKSDNINKFNYFPIPAKELDTNPLCTPSEGW,glycan array binding signal (z-score),Gal(b1-4)Glc,-0.132
same,glycan array binding signal (z-score),Gal(b1-4)Glc6S,-0.696
same,glycan array binding signal (z-score),Gal(b1-4)GlcNAc,0.126
same,glycan array binding signal (z-score),[1],0.583
same,glycan array binding signal (z-score),Gal(b1-4)GlcNAc(b1-2)Man,0.304
same,glycan array binding signal (z-score),[2],-0.543
same,glycan array binding signal (z-score),[3],-0.396
same,glycan array binding signal (z-score),[4],0.126
same,glycan array binding signal (z-score),[5],-1.11
same,glycan array binding signal (z-score),[6],0.329
same,glycan array binding signal (z-score),[7],0.615
same,glycan array binding signal (z-score),[8],0.883
same,glycan array binding signal (z-score),[9],-0.045
same,glycan array binding signal (z-score),[10],-0.721
same,glycan array binding signal (z-score),[11],0.262
same,glycan array binding signal (z-score),[12],-0.717
same,glycan array binding signal (z-score),[13],-0.22
same,glycan array binding signal (z-score),[14],0.036
same,glycan array binding signal (z-score),[15],1.37
same,glycan array binding signal (z-score),[16],-0.748
same,glycan array binding signal (z-score),[17],0.469
same,glycan array binding signal (z-score),[18],-0.056
same,glycan array binding signal (z-score),[19],-0.303
same,glycan array binding signal (z-score),[20],-0.989
same,glycan array binding signal (z-score),[21],-0.038
same,glycan array binding signal (z-score),[22],-0.801
same,glycan array binding signal (z-score),[23],-0.017
same,glycan array binding signal (z-score),[24],-0.456
same,glycan array binding signal (z-score),[25],1.87
same,glycan array binding signal (z-score),[26],-0.044
same,glycan array binding signal (z-score),[27],0.712
same,glycan array binding signal (z-score),[28],1.07
same,glycan array binding signal (z-score),[29],0.236
same,glycan array binding signal (z-score),[30],-0.033
same,glycan array binding signal (z-score),[31],0.443
same,glycan array binding signal (z-score),[32],0.978
same,glycan array binding signal (z-score),[33],0.611

# Pulled one by one from above:
binder,measurement,setting,value
PX14375D-bvu-513-34-513 (Bacteroides vulgatus) (protein) TEDTFWKDETDFNLALTSCYTPLKNALNGGYYGTRGVMLRIARADEVDFRNDISDVYTVNRFTNSNTNSLTQGMFYQFYNALYRTNSIMQKLEEKKEQFSTDFQNSVKGECLFIRGFYLFQLAKEFKDAPLRLTASQSPSTFPLAKSSQADIWAQAKEDLKTAASLLPITNKIGKPTQGAAYAALGKIYVYEENWQEAINVLEPLTQNPYTYKLVEDFNWNFDDTHENNAESIFELLIEDVGGTDLWGDGENINSTQSNTRPKEYAAAEVGGWYEANPTQQIMDIFWKEKDKDGNFDYRARCSVAWDYEGCTYYQRPFREVFAQDKWKTYWILKYQNWKTQKDEPAPPKSFINERAIRYADVLLMLAEAYMNKGALDTSIGYINQIRRRANLNDYSGPITKEGVFEDLVHQRAIEFFVEGERFYDLRRWGLLEQTLKTCDDTRYKNYQTGKSDNINKFNYFPIPAKELDTNPLCTPSEGW,glycan array binding signal (z-score),[33],0.611
same,glycan array binding signal (z-score),[2],-0.543
